Experimental data: paper doi:10.1101/2023.10.06.561273, “Bacterial cell surface nanoenvironment requires a specialized chaperone to activate a peptidoglycan biosynthetic enzyme” (bioRxiv, 2023)
No constants are given. Whether binding was seen depends on the method and setting. Binding seen in cells or lysates may run through a third protein. Some entries that bind do so weakly or less than the wild type. Tags and fused reporters may be left off the sequences shown.

T1: SpoVK^(B*, A5V)-FLAG (B. subtilis) (UniProt P27643)
T1 sequence: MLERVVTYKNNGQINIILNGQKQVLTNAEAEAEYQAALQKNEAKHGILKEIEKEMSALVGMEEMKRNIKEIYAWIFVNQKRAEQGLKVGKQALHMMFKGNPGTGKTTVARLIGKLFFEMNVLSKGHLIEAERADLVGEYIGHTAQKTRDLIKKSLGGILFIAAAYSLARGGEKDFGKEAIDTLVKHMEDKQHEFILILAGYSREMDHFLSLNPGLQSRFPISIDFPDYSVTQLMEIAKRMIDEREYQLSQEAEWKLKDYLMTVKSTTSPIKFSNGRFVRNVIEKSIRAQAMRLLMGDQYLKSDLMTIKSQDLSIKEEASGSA

T2: FLAG-tagged SpoVK harboring a disrupted Walker B motif (SpoVK^B*-FLAG) (B. subtilis) (UniProt P27643)
T2 sequence: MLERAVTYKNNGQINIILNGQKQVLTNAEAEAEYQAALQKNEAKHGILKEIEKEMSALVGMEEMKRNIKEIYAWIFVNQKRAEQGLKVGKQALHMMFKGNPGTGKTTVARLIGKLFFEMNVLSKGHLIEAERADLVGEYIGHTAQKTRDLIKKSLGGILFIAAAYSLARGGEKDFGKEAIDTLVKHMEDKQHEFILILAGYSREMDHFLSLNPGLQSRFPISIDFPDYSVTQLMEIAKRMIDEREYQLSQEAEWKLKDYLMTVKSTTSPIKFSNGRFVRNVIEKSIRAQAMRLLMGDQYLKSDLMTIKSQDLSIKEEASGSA


Legend:
[1] = target: T1, SpoVK^(B*, A5V)-FLAG (B. subtilis); assay: co-IP; anti-FLAG magnetic beads on extracts of B. subtilis 4 h after induction of sporulation (cells with SpoVID, or ΔspoVID cells for MurG); binding buffer 50 mM Tris-HCl pH 7.5, 150 mM NaCl, 7.5% glycerol, 0.2% Triton-X-100, 4 °C, 1 h; elution with 100 mM glycine pH 2.7; fractions immunoblotted
[2] = target: T2, FLAG-tagged SpoVK harboring a disrupted Walker B motif (SpoVK^B*-FLAG) (B. subtilis); assay: as above

| binding [1] | binding [2] | Binder |
| --- | --- | --- |
| binds | binds | SpoVID (protein, UniProt P37963 1-575) MPQNHRLQFSVEESICFQKGQEVSELLSISLDPDIRVQEVNDYVSIIGSLELTGEYNIDQNKHTEEIYTDKRFVEQVRKREDGSAELTHCFPVDITIPKNKVSHLQDVFVFIDAFDYQLTDSRILTIQADLAIEGLLDDTQDKEPEIPLYEAPAAFREEELSEPPAHSVVEEPGASSAEEAVLQHEPPAEPPELFISKAGLREELETEKAESEPPESVASEPEAREDVKEEEESEELAVPETEVRAESETEESEPEPDPSEIEIQEIVKAKKETAEPAAAIADVREEADSPAETELREHVGAEESPALEAELHSETVIAKEKEETTVSPNHEYALRQEAQNEEAAQSDQADPALCQEEAEPDEALESVSEAALSIEDSRETASAVYMENDNADLHFHFNQKTSSEEASQEELPEPAYRTFLPEQEEEDSFYSAPKLLEEEEQEEESFEIEVRKTPSAEEPKEETPFQSFQLPESSETERKETDAVPRVAPAAETKEPQTKESDNSLYLTKLFTKEADEFSRMKICIVQQEDTIERLCERYEITSQQLIRMNSLALDDELKAGQILYIPQYKNSHA |
|  | binds | GFP fused to the LysM domain of SpoVID (GFP-SpoVID^501−575) (domain or fragment, UniProt P37963 501-575) ESDNSLYLTKLFTKEADEFSRMKICIVQQEDTIERLCERYEITSQQLIRMNSLALDDELKAGQILYIPQYKNSHA |
| binds | binds | MurG (enzyme, UniProt P37585 1-363) MRIAISGGGTGGHIYPALAFIKEVQRRHPNVEFLYIGTENGLEKKIVERENIPFRSIEITGFKRKLSFENVKTVMRFLKGVKKSKSYLAEFKPDAVIGTGGYVCGPVVYAAAKMGIPTIVHEQNSLPGITNKFLSKYVNKVAICFEEAKSHFPSEKVVFTGNPRASEVVSIKTGRSLAEFGLSEDKKTVLIFGGSRGAAPINRAVIDMQDVLKTRDYQVLYITGEVHYEKVMNELKSKGAADNMVTKPFLHQMPEYLKAIDVIVARAGATTIAEITALGIPSVLIPSPYVTANHQEVNARSLGQHDAAIVLKETELSGEKLIEALDRIVLNEQTLKEMSERTKSLGVPDAAARLYSVLEELKK |
